Results published in publication PMC7188298.
No constants are given. Whether binding was seen depends on the method and setting. Binding seen in cells or lysates may run through a third protein. Tags and fused reporters may be left off the sequences shown.

Target: VdDpb4-YFP^N (Verticillium dahliae)
Assay: split reporter; YFP^N and YFP^C (Venus fragment) fusions cotransformed into V. dahliae V592; colonies on PDA medium for 3 days; fluorescence microscopy

binding: no binding
B1: VDAG_03019-YFP^C (protein, UniProt G2WZZ6 1-204)
chain: MSDSPQSASKDVDQGVPSPDEEGQMNDPQDPHSGGLTYEFEVKEQDRWLPIANVARIMKNALPENAKIAKEAKECMQECVSEFISFITSEASEKCHQEKRKTVNGEDILFAMTSLGFENYAEALKIYLSKYREQQSQTNRGEGGQGARPNSAYGGQPPTGAGSFQAEASGNILGAQPGEGGADASNYMYPPQSGHNGAGAGEGY
